In all, about 400,000 compounds went through this assay and about 5,500 (1.4%) were called active. The shares of active, inactive and inconclusive entries below differ from those in the screen. Calls come from the whole dose curve; as a rule, active = well fitted cell-killing curve with a large enough effect; inconclusive = small, poorly fitted or top-dose-only effect, or effect the other way; inactive = flat fitted curve, though single readings scatter. A potency beside an inconclusive call is a rough fit, not a confirmed value.
Assay: qHTS assay for MDR1-selective chemotherapeutics: Primary screen using the parental adenocarcinoma cell KB-3-1; note: nearly all actives have a fitted effect of over 60% in size
Conditions: KB-3-1 viability, CellTiter-Glo ATP luminescence, 72 h; series mostly up to 46.1 µM
How it was run: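 Parental KB-3-1 adenocarcinoma cells in phenol-red-free DMEM with 10% FBS were pin-treated with compounds at several concentrations, incubated 72 h at 37 °C, and viability read by CellTiter-Glo luminescence; concentration-effect curves were fitted after normalization.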
In the case of `Fc1ccc(-c2cn3cc(Cc4ccc(Cl)cc4)sc3n2)cc1`, the Potency is reported as inconclusive: 18.4 µM [cytotoxic, partial curve, poor fit].
For `CC(C)N(C(=O)Nc1ccc2nsnc2c1)C(C)C`, the Potency was inconclusive: 16.4 µM [cytotoxic, single point].
For `CCCCCCCCSc1nnc(CSc2nc3nc(C)cc(C)n3n2)o1`, the Potency was inconclusive: 29.1 µM [cytotoxic, single point].
In the case of `CC1CC1C(=O)N1CCN(S(=O)(=O)c2cccc(F)c2)CC1` (stereo not given), the Potency is reported as “inactive”.
In the case of `Cc1ccccc1-c1nc2cc(NC(=O)COc3ccc(F)cc3)ccc2o1`, the Potency is reported as “inactive”.
For `COc1cc(OC)cc(C2=Cc3ccc(OC)cc3C(CC(C)=O)N2c2ccc(-c3cncnc3)cc2)c1` (stereo not given), the Potency was inconclusive: 20.6 µM [cytotoxic, single point].
With `CCCOc1ccc(/C=C2/C(=O)ON=C2C)cc1OCC` the Potency was inconclusive: 20.6 µM [cytotoxic, single point].
In the case of `Oc1cc(O)c(/C=C/c2ccnc3ccccc23)c(O)c1`, the Potency is reported as inconclusive: 5.8 µM [rising, full curve, poor fit].
With `COc1cccc(C2=NOC(C(=O)NCc3ccccc3)C2)c1` (stereo not given) the Potency was active: 11.6 µM.
In the case of `Cc1ccc(OCc2ccc(C(=O)Nc3ccc(S(N)(=O)=O)cc3)o2)cc1`, the Potency is reported as inconclusive: 18.4 µM [rising, single point].
For `Cc1ccc(CC2SC(=Nc3ccccc3)N(c3ccccc3)C2=O)cc1` (stereo not given), the Potency was inconclusive: 25.9 µM [cytotoxic, single point].
In the case of `O=C1CN(C(=O)c2ccc(Cl)c(S(=O)(=O)N3CCc4ccccc43)c2)c2ccccc2N1`, the Potency is reported as inconclusive: 29.1 µM [cytotoxic, single point].
For `Cc1cc2nc(-c3ccc(F)cc3)c(Cc3ccsc3)n2c(C)c1Br`, the Potency was inconclusive: 29.1 µM [cytotoxic, single point].
For `CC(=O)Nc1cc(C(=O)NCc2ccco2)ccc1Sc1ccc(Cl)cc1`, the Potency was “inactive”.
With `O=C(Nc1ccccc1Cl)c1ccccc1S(=O)(=O)c1ccccc1[N+](=O)[O-]` the Potency was “inactive”.
For `CC(C)[n+]1ccn(C2=C([O-])c3ccccc3C(=O)/C2=N\S(=O)(=O)c2ccccc2)c1`, the Potency was inconclusive: 16.4 µM [cytotoxic, single point].
For `CN(Cc1ccccc1)C(=O)c1[nH]cnc1C(=O)Nc1nccs1`, the Potency was “inactive”.
With `CC(C)(C)OC(=O)N1CCN(C(=O)c2[nH]cnc2C(=O)Nc2ccon2)CC1` the Potency was inconclusive: 18.4 µM [rising, single point].
In the case of `COc1ccc(C2=NCCn3nc4cc([N+](=O)[O-])ccc4c32)cc1`, the Potency is reported as “inactive”.
With `Cc1ccc2nc(SCC(=O)Nc3ccccc3N3CCOCC3)c(C#N)cc2c1` the Potency was inconclusive: 14.6 µM [cytotoxic, partial curve].
With `COC(=O)c1c(-c2ccc(Cl)cc2)noc1N1CCN(c2cccc(C(F)(F)F)c2)CC1` the Potency was “inactive”.
With `CC(C)C(=O)NC(c1ccccc1)c1cc([N+](=O)[O-])c2cccnc2c1O` (stereo not given) the Potency was inconclusive: 32.6 µM [cytotoxic, single point].
In the case of `C[C@H]1CN([C@@H](C)CO)C(=O)Cc2cc(NC(=O)CCN3CCOCC3)ccc2O[C@@H]1CN(C)Cc1ccc(Oc2ccccc2)cc1`, the Potency is reported as “inactive”.
In the case of `Nc1c(Cl)ncnc1N/N=C/c1ccc2ccccc2n1`, the Potency is reported as active: 20.6 µM.
With `CCCCN(CC)Cc1ccc(CNC(=O)Nc2ccccc2)o1` the Potency was “inactive”.
In the case of `OCC1OC(n2ccc3c2ncn2ncnc32)C(O)C1O` (stereo not given), the Potency is reported as inconclusive: 1.64 µM [cytotoxic, full curve].
In the case of `Cc1[nH]c2ccccc2c1/C=C(\C#N)S(=O)(=O)c1ccccc1`, the Potency is reported as “inactive”.
With `O=S(=O)(c1ccccc1)N1CCN(Cc2ccccc2)CC1` the Potency was inconclusive: 0.082 µM [rising, partial curve, poor fit].
With `COc1ccc(N(C)S(=O)(=O)c2cccc(C(=O)N3CCN(c4ccccc4)CC3)c2)cc1` the Potency was inconclusive: 29.1 µM [cytotoxic, single point].
With `CCOc1c(Cl)cc(CNC(C)(C)CC(C)(C)C)cc1OC` the Potency was inconclusive: 29.1 µM [cytotoxic, single point].
For `Cc1ccccc1NC(=O)Cc1nc(COC(=O)Cc2cccc(C(F)(F)F)c2)cs1`, the Potency was “inactive”.
With `CC1(C(=O)NCc2cccs2)Cc2c(-c3ccc4c(c3)OCO4)ccnc2O1` (stereo not given) the Potency was active: 5.17 µM.
For `CCCCSc1nc(C)cc(SCC(=O)N/N=C/c2cccc(OC)c2O)n1`, the Potency was inconclusive: 13 µM [cytotoxic, partial curve].
In the case of `CCCc1cc(C(=O)Nc2ccc(Cl)cn2)cs1`, the Potency is reported as inconclusive: 29.1 µM [cytotoxic, single point].
With `CCN(Cc1ccccc1)S(=O)(=O)c1c(C)[nH]c(C)c1C(=O)N1CCCC1` the Potency was inconclusive: 32.6 µM [cytotoxic, partial curve, poor fit].
With `Cc1cccc(C)c1NC(=O)C(c1ccncc1)n1c(=O)c(-c2ccco2)nc2ccccc21` (stereo not given) the Potency was “inactive”.
In the case of `COc1cc(C(=O)N[C@H](C(=O)NC(C)C23CC4CC(CC(C4)C2)C3)C(C)C)cc(OC)c1OC` (stereo not given in full), the Potency is reported as inconclusive: 29.1 µM [cytotoxic, single point].
In the case of `Cc1nnsc1C(=O)N/N=C/c1ccc2ccccc2c1O`, the Potency is reported as “inactive”.
In the case of `Cc1nn(C)c2c1c(-c1ccccc1)cc(=O)n2C(C)C(=O)NCc1ccc(F)cc1` (stereo not given), the Potency is reported as “inactive”.
In the case of `CC(=O)c1c(C)[nH]c(C(=O)OCC(=O)NCCC2=CCCCC2)c1C`, the Potency is reported as inconclusive: 29.1 µM [cytotoxic, single point].
In the case of `COc1ccc(N2CCN(c3oc(-c4ccco4)nc3C#N)CC2)cc1`, the Potency is reported as inconclusive: 29.1 µM [cytotoxic, single point].
For `COc1ccccc1CC(=O)Nc1cccc2ccccc12`, the Potency was “inactive”.
In the case of `CS(=O)(=O)c1ccccc1C(=O)Nc1cc2c(cc1C(=O)O)OCCCO2`, the Potency is reported as “inactive”.
With `O=[N+]([O-])c1cc(C(F)(F)F)cc([N+](=O)[O-])c1NCCNC(=S)Nc1ccc(Cl)c(Cl)c1` the Potency was inconclusive: 29.1 µM [cytotoxic, single point].
In the case of `c1ccc(-c2nnc(N3CCN(c4ccccn4)CC3)c3ccccc23)cc1`, the Potency is reported as inconclusive: 29.1 µM [cytotoxic, single point].
For `COc1ccc(N(CC(=O)Nc2nc3ccc(C)cc3s2)S(=O)(=O)c2c(C)nn(C)c2C)cc1`, the Potency was inconclusive: 25.9 µM [cytotoxic, single point].
For `CCOc1ccc(NC(=O)CN2CCN(CC(=O)Nc3ccc(C(N)=O)cc3)CC2)cc1`, the Potency was “inactive”.
For `COc1ccc(NC(=O)C(c2ccccc2)N2CCN(c3ccccn3)CC2)cc1Cl` (stereo not given), the Potency was “inactive”.
For `Cc1cc(O)ccc1Nc1nc(-c2cccnc2)cs1`, the Potency was inconclusive: 0.0082 µM [cytotoxic, full curve, poor fit].
For `CCN(CC)CC#CC(OC)(c1ccccc1)c1ccccc1`, the Potency was inconclusive: 18.4 µM [cytotoxic, single point].
With `N#Cc1ccccc1OCCCN1CCC(C(O)(c2ccccc2)c2ccccc2)CC1` the Potency was inconclusive: 29.1 µM [cytotoxic, single point].
In the case of `O=C(Nc1ccc(SC(F)F)cc1)c1ccc2nccnc2c1`, the Potency is reported as inconclusive: 18.4 µM [cytotoxic, partial curve].
In the case of `COc1cc(OC)nc(Oc2cc(/C=N/O)ccc2OC)n1`, the Potency is reported as inconclusive: 29.1 µM [cytotoxic, single point].
For `COc1ccc(OCC(=O)Nc2cc3oc4ccccc4c3cc2OC)cc1`, the Potency was inconclusive: 0.231 µM [rising, full curve].
With `O=C(C1CCN(Cc2cc(Cl)ccc2O)CC1)N1CCN(Cc2ccccc2)CC1` the Potency was inconclusive: 16.4 µM [cytotoxic, partial curve].
For `Cc1c(C(=O)C(=O)NCc2cccs2)c2ccccc2n1C`, the Potency was inconclusive: 16.4 µM [rising, single point].
For `CC(C)CN(CCNC(=O)c1cc(-c2ccc(Cl)s2)nc2ccccc12)CC(C)C`, the Potency was “inactive”.
With `COc1ccc2c3c(n(C(=O)OC(C)(C)C)c2c1)C1CC=C(COC(C)=O)CN1CC3` (stereo not given) the Potency was “inactive”.
For `O=C(COc1ccccc1)Nc1ccc2oc(=O)ccc2c1`, the Potency was inconclusive: 29.1 µM [rising, single point].
With `O=C(Nn1cnc2ccccc2c1=O)c1c(F)cccc1F` the Potency was inconclusive: 0.0461 µM [rising, full curve].
For `O=C(OCC(=O)N1CCOCC1)c1ccc2ccccc2c1O`, the Potency was “inactive”.
With `Cc1ccccc1NC(=O)c1ccc(NC(=O)C2CC(=O)OC23CCCCC3)cc1` (stereo not given) the Potency was inconclusive: 32.6 µM [rising, single point].
In the case of `COc1ccc(C(=O)NCCNc2nc3c(C)cccc3cc2C#N)cc1OC`, the Potency is reported as inconclusive: 0.0073 µM [rising, full curve, poor fit].
With `CCOC(=O)c1cnc2ccc(C)cc2c1Nc1ccc(N2CCOCC2)cc1` the Potency was inconclusive: 29.1 µM [cytotoxic, single point].
With `CCOC(=O)C1=C(N)n2c(s/c(=C/c3ccco3)c2=O)=C(C(=O)OC)C1c1ccco1` (stereo not given) the Potency was active: 8.2 µM.
In the case of `CC1=CC(=O)C(Sc2ccc(C)cc2)=CC1=O`, the Potency is reported as inconclusive: 20.6 µM [cytotoxic, single point].
In the case of `Cc1ccc(CNC(=O)CCCn2c(=O)c3ccccc3n(Cc3ccc(Cl)cc3)c2=O)cc1`, the Potency is reported as “inactive”.
In the case of `CCOC(=O)N(C)c1c(CC)nc2c(OCCC3CCCCC3)cccn12`, the Potency is reported as “inactive”.
In the case of `S=C(Nc1cc(Cl)cc(Cl)c1)NC1CCN(Cc2ccccc2)CC1`, the Potency is reported as inconclusive: 29.1 µM [cytotoxic, single point].
For `CCOC(=O)c1ccc(NC2=CC(=O)CC(c3ccco3)C2)cc1` (stereo not given), the Potency was inconclusive: 5.8 µM [rising, full curve].

From PubChem BioAssay AID1347075 (National Center for Advancing Translational Sciences (NCATS), 2019)
Potency is the fitted concentration of half-maximal effect.
